Data published in paper PMC12040169 (PLOS Biology, 2025).
The other results are listed elsewhere or left out.

test system: T1, CTL2-GFP (C. trachomatis L2/434/Bu, GFP-expressing); design: species or system HeLa; Intracellular C. trachomatis growth in HeLa cells, bulk GFP fluorescence relative to DMSO; details: bulk GFP, single well; 28.5 h, 10 µM; inhibitor
T1 construct: L2/434/Bu, GFP-expressing

SMILES | % of control remaining
c1ccc(-c2ccccc2CN2CCN(c3nccnc3OCCN3CCOCC3)CC2)cc1 [CBK082893T] | 118.212%
O=C(O)CNC(=O)CCS(=O)(=O)c1ccc(F)cc1 [CBK286580] | 133.292%
CCn1c(SCc2nc(-c3ccc(Br)cc3)no2)nnc1-c1c[nH]c2ccccc12 [CBK268668] | 161.196%
Cc1ccc(S(=O)(=O)Nc2sccc2C(=O)N2CCN(C)CC2)cc1 [CBK042264] | 135.665%
Cc1ccc2[nH]c(-c3cccc(NC(=O)c4cccc(CN5CCCC5=O)c4)c3)nc2c1 [CBK285838] | 41.1916%
Cc1cc(C)cc(C(O)CNC2CCN(Cc3cscn3)CC2)c1 (stereo not drawn) [CBK304457] | 152.578%
COc1cc2c3c(cccc3c1)CC(C)(N(C)C)C2 (stereo not drawn) [CBK024357C] | 119.53%
CCCNC(=O)Cn1c(=O)n(Cc2cccs2)c2ncccc21 [CBK283843] | 102.205%
O=C(NC1CCNC1)c1cccc(S(=O)(=O)NCc2ccsc2)c1 (stereo not drawn) [CBK306706] | 108.781%
Cc1cc(C(=O)N2CCN(c3ncccn3)CC2)n[nH]1 [CBK144526] | 126.014%
NS(=O)(=O)c1ccccc1Sc1ccccc1 [CBK020524] | 112.081%
Cc1nc(N)c(CNC2CCCCC2)c(O)n1 [CBK019809] | 105.806%
NS(=O)(=O)c1ccc(Cl)c(Cl)c1 [CBK015652] | 120.838%
CCCn1c(=O)c(Cc2ccccc2)c(O)c2ccccc21 [CBK291175] | 133.867%
Cn1cc(-c2ccccc2CN2CCCC2)c2onc(-c3ccccc3)c2c1=O [CBK036319C] | 125.65%
O=C(NC1CC1)c1nn(-c2ncccn2)c2ccccc12 [CBK048508] | 100%
CC(C)C(NC(=O)C(C)(C)Oc1ccc(Cl)cc1)C(=O)O (stereo not drawn) [CBK266138] | 150.252%
CN(C)c1cccc(Nc2ccc(-c3ccc(CCC(=O)O)cc3)cn2)c1 [CBK036918] | 184.619%
N#CCCn1cc(C(=O)N2CCOCC2)c(-c2cc3ccccc3o2)n1 [CBK306203] | 96.1981%
COc1cc(-c2ccc(C(=O)N(C)CCN(C)C)c(N(C)C)n2)cc(OC)c1OC [CBK106076] | 103%
CS(=O)(=O)N1CCc2cc(S(=O)(=O)N3CCN(c4ccc([N+](=O)[O-])c(NCc5ccccc5)c4)CC3)ccc21 [CBK268311] | 121.94%
CC(=O)Nc1ccc(CCOc2nccnc2-c2ccccc2)cc1 [CBK106683] | 110.7%
CCCCC1CCC(C(=O)Nc2ncccn2)CC1 (stereo not drawn) [CBK027423] | 127.884%
Cn1ccnc1C1(O)CCN(C(=O)c2ccc(F)cc2F)CC1 [CBK283552] | 77.0864%
COc1cc(C)c(Nc2cccc(-c3ccsc3)n2)cc1OC [CBK037025] | 77.8019%
COc1cc(C(=O)N2CCCC3(CCN(C(=O)c4cc(F)c(F)cc4F)C3)C2)cc(OC)c1OC (stereo not drawn) [CBK131563] | 111.92%

SMILES | % of control remaining
COc1cc(C(=O)NCC(=O)O)cc(Cl)c1OCC(C)C [CBK297485] | 138.139%
Nc1nonc1C(=O)NCCNc1ccc([N+](=O)[O-])cn1 [CBK268279] | 129.326%
COCCSc1ccccc1C(=O)Nc1ccc(S(N)(=O)=O)cc1 [CBK267530] | 135.698%
CC(C)(CO)Cn1c(=O)[nH]c2ncc(-c3cccnc3)nc21 [CBK064697] | 156.212%
CC(C)(C)NC(=O)Cn1cncc1-c1[nH]c2ccccc2c1Cl [CBK281981] | 113.408%
Cc1cc(N2CCN(C(=O)CCc3nccs3)CC2)nc(C(C)C)n1 [CBK304778] | 114.824%
Cc1nc2c(C(=O)NCCNC(=O)c3cccnc3)ncn2c(C)c1Cc1ccc(F)c(Cl)c1 [CBK169332] | 167.943%
O=C(Nc1ccc(F)c(C(F)(F)F)c1)c1cncc(-c2ccc(C(=O)N3CCOCC3)cc2)c1 [CBK160216] | 116.386%
c1ccc(Cn2ccc3c(N4CCNCC4)nccc32)cc1 [CBK051672C] | 126.824%
CC(C)(C)OC(=O)N1CCC2(CC1)N=C(c1ccccc1)C(=S)N2 [CBK288478] | 118.176%
CCOc1cc(-c2nc3sc(CC)cc3c(=O)[nH]2)ccc1OCC(=O)O [CBK298291] | 106.031%
Cc1c(C(=O)N2CCC(c3ccncc3)CC2)oc2ccccc12 [CBK282413] | 96.7336%
CN1CCC(N2CCN(C(=O)NCc3ccc4c(c3)OCO4)CC2)CC1 [CBK155885] | 100%
Cc1ccc(S(=O)(=O)N(CCO)CC2CC2)c(Cl)c1 [CBK304885] | 128.258%
O=C(CCCN1C(=O)c2cccc3cccc(c23)C1=O)N1CCN(Cc2ccc3c(c2)OCO3)CC1 [CBK074370] | 119.191%
O=C1CN(C(=O)Nc2ccccc2Cl)CCN1 [CBK155862] | 102.88%
CCCCOc1ccc(-c2ccc(C#N)cc2)cc1 [CBK056958] | 137.113%
Cc1ccc(OC(=O)CCC(=O)Nc2ccc(S(N)(=O)=O)cc2)cc1 [CBK264708] | 112.17%
CC1c2ccsc2CCN1S(C)(=O)=O (stereo not drawn) [CBK023574] | 141.217%
O=C(N[C@H]1CCN2C(=O)c3cc(-c4cccs4)ccc3NC(=O)[C@H]12)c1cccs1 [CBK289336] | 105.233%
Cc1nc(-c2cccnc2)[nH]c(=O)c1CC(=O)N1CCN(C)CC1C (stereo not drawn) [CBK304950] | 133.817%
COc1ccc(-c2c3c(nc4sc(C#N)c(N)c24)CCCC3)cc1 [CBK270279] | 117.556%
COCCN1CCN(c2nc(-c3ccncc3)nc3c2CCC3)CC1 [CBK306101] | 147.013%
O=S(=O)(Nc1ncccn1)c1ccc(NC(=S)Nc2ccc3c(c2)OCO3)cc1 [CBK267046] | 23.7167%
O=C(NCCn1c(C(F)(F)F)cc(=O)c2cccc(F)c21)C1CC1 [CBK284807] | 163.635%

Looked up by compound from the list above, 4 records:
SMILES | % of control remaining
CC(C)(C)NC(=O)Cn1cncc1-c1[nH]c2ccccc2c1Cl [CBK281981] | 113.408%
CC(C)(C)OC(=O)N1CCC2(CC1)N=C(c1ccccc1)C(=S)N2 [CBK288478] | 118.176%
CC1c2ccsc2CCN1S(C)(=O)=O (stereo not drawn) [CBK023574] | 141.217%
Cc1nc(-c2cccnc2)[nH]c(=O)c1CC(=O)N1CCN(C)CC1C (stereo not drawn) [CBK304950] | 133.817%
